{"source": "PubChem BioAssay AID504444", "about": "(National Center for Advancing Translational Sciences (NCATS), 2011)", "note": "The whole screen tested about 360,000 compounds, of which about 7,500 (2.1%) were called active. This list was built around the results that the source calls inconclusive (neither active nor inactive); the mix of calls is not that of the screen. Calls come from the whole dose curve; as a rule, active = well fitted inhibition curve with a large enough effect; inconclusive = small, poorly fitted or top-dose-only effect, or effect the other way; inactive = flat fitted curve, though single readings scatter. Where the call is inconclusive, the potency comes from a doubtful curve fit. % is set by controls: 0 for no effect and ±100 for the full control effect; potency is the fitted concentration of half-maximal effect.", "data": [{"experiment": "Nrf2 qHTS screen for inhibitors; note: nearly all actives have a fitted effect of over 60% in size", "details": "A549 ARE-Fluc reporter, luciferase luminescence, 18-24 h; activity change, negative = inhibition: at 46 µM (top of the series)", "in_short": "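Nrf2 activity is the BugLite luminescence, read 15 min after reagent at room temperature, following CellTiter-Fluor cytotoxicity readout (30 min, 37C). Compound titrations were applied for 18-24 h to 5000 A549 ARE_Fluc cells/well in 5% FBS OPTI-MEM.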", "values": [{"smiles": "CCOC(=O)c1cnc(SCC(=O)Nc2cc(OC)cc(OC)c2)nc1N", "Potency": "inconclusive: 25.9 µM [falling, partial curve, poor fit]"}, {"smiles": "COc1ccc(-c2nc(CSCC(=O)NCCC(C)C)c(C)o2)cc1OC", "activity change, negative = inhibition": "inactive: -29.2%"}, {"smiles": "COc1ccccc1NC(=O)NC1CC(=O)N(c2ccc3c(c2)OCCO3)C1", "note": "(stereo not drawn)", "activity change, negative = inhibition": "inactive: 4.5%"}, {"smiles": "COc1cc(NC(=O)c2ccccc2F)c(OC)cc1NC(=O)CN1CCCCC1", "Potency": "inconclusive: 23.1 µM [falling, single point]"}, {"smiles": "Cc1cc(C)c(NC(=O)CSc2nc3c(c(=O)n2C)SC(C)C3)c(C)c1", "note": "(stereo not drawn)", "Potency": "inconclusive: 18.4 µM [falling, single point]"}, {"smiles": "COc1ccc(OC)c2nc(-c3cccnc3)ccc12", "Potency": "inconclusive: 7.31 µM [activator, partial curve]"}, {"smiles": "O=C1c2ccccc2C(=O)c2c1cccc2N1CCN(CCO)CC1", "Potency": "inconclusive: 5.17 µM [activator, full curve, poor fit]"}, {"smiles": "Cc1ccc(/C=N/Nc2nnc(Cc3ccccc3)c(=O)[nH]2)o1", "Potency": "inconclusive: 20.6 µM [activator, single point]"}, {"smiles": "CCCN(CC(=O)Nc1ccccc1OC)C(=O)c1ccc2[nH]c3c(c2c1)CC(C)CC3", "note": "(stereo not drawn)", "Potency": "active: 23.1 µM"}, {"smiles": "O=[N+]([O-])c1ccc(N/N=C2\\CC3CC=CC23)c([N+](=O)[O-])c1", "note": "(stereo not drawn)", "Potency": "active: 23.1 µM"}, {"smiles": "Nc1nc(N)nc(-c2cc(F)ccc2O)n1", "Potency": "inconclusive: 16.4 µM [falling, single point]"}, {"smiles": "O=C(Nc1ccc2oc(-c3ccccc3F)nc2c1)c1ccco1", "Potency": "inconclusive: 2.31 µM [activator, full curve]"}, {"smiles": "CC(C)(C)S(=O)(=O)c1cnc2c(-c3ccsc3)cnn2c1N", "Potency": "inconclusive: 29.1 µM [activator, single point]"}, {"smiles": "Cc1cc2nc(-c3ccc(SCC(=O)Nc4ccc(S(=O)(=O)N5CCCC5)cc4)nc3)[nH]c2cc1C", "Potency": "inconclusive: 0.184 µM [activator, full curve, poor fit]"}, {"smiles": "O=C(NC(=S)Nc1ccccc1[N+](=O)[O-])c1ccccc1Cl", "Potency": "inconclusive: 7.31 µM [activator, partial curve]"}, {"smiles": "CCOc1ccc(S(=O)(=O)N2CCCCC2)cc1NC(=O)C1COc2ccccc2O1", "note": "(stereo not drawn)", "Potency": "inconclusive: 16.4 µM [falling, partial curve, poor fit]"}, {"smiles": "Cc1ccc(NC(=O)CN(C)CC(=O)Nc2sc3c(c2C(N)=O)CCC3)cc1", "Potency": "inconclusive: 25.9 µM [falling, single point]"}, {"smiles": "COc1ccc(C(=O)N(Cc2ccccc2)c2ccc(C)cc2)cc1S(=O)(=O)N1CCOCC1", "Potency": "inconclusive: 16.4 µM [falling, single point]"}, {"smiles": "O=C1/C(=C\\c2ccco2)NC(=S)N1c1ccccc1", "Potency": "inconclusive: 20.6 µM [activator, partial curve]"}, {"smiles": "O=S1(=O)C2CC3C=CC2(O3)C(O)C(Cc2ccccc2)N1Cc1cccc(F)c1", "note": "(stereo not drawn)", "activity change, negative = inhibition": "inactive: 11.1%"}, {"smiles": "Cc1ccc(-n2nc(C)c3c(C(=O)NCCc4ccc(S(N)(=O)=O)cc4)cc(C)nc32)cc1", "Potency": "inconclusive: 16.4 µM [falling, single point]"}, {"smiles": "O=[N+]([O-])c1ccccc1S(=O)(=O)N1CCN(c2nc(-c3ccccc3)nc3ccccc23)CC1", "activity change, negative = inhibition": "inactive: 2.63%"}, {"smiles": "CCN1CCc2c(sc(NC(=O)c3ccc(S(=O)(=O)N(CC)c4ccccc4)cc3)c2C(N)=O)C1", "Potency": "active: 16.4 µM"}, {"smiles": "O=C(NC(=S)Nc1cc(C(F)(F)F)ccc1N1CCOCC1)c1sc2ccccc2c1Cl", "Potency": "inconclusive: 14.6 µM [falling, partial curve]"}, {"smiles": "O=C(NC1CCCc2ccccc21)c1cn2ccccc2n1", "note": "(stereo not drawn)", "activity change, negative = inhibition": "inactive: 20.3%"}, {"smiles": "O=C(CN1C(=O)c2cccnc2Sc2ccccc21)Nc1cc(F)ccc1F", "Potency": "inconclusive: 2.06 µM [falling, partial curve, poor fit]"}, {"smiles": "CC(C)(C)OC(=O)Cc1nnc(-c2cc3ccccc3[nH]2)s1", "Potency": "inconclusive: 0.92 µM [activator, full curve, poor fit]"}, {"smiles": "Cc1nn(-c2ccccc2)c(Cl)c1/C=N/NC(=O)c1cccnc1", "activity change, negative = inhibition": "inactive: 23.4%"}, {"smiles": "COc1ccccc1OCC(=O)c1[nH]c(C)c(C(C)=O)c1C", "Potency": "active: 5.17 µM"}, {"smiles": "Cc1cccc(-c2noc(CN(C)C(=O)c3ccco3)n2)c1", "Potency": "inconclusive: 25.9 µM [activator, partial curve]"}, {"smiles": "Oc1sc(C=Nc2ccccc2)c2ccccc12", "Potency": "inconclusive: 6.51 µM [activator, partial curve]"}, {"smiles": "O=C(O)c1ccc(S(=O)(=O)N2CCCc3ccccc32)cc1", "activity change, negative = inhibition": "inactive: 0.349%"}, {"smiles": "Cn1c(=O)c2[nH]c(-c3ccccc3Cl)c(O)c2n(C)c1=O", "Potency": "inconclusive: 32.6 µM [activator, partial curve, poor fit]"}, {"smiles": "CCC1CN(C(=O)N2CCC(C(=O)NCc3cccc(F)c3)CC2)c2cc(C)ccc2O1", "note": "(stereo not drawn)", "Potency": "inconclusive: 14.6 µM [falling, partial curve, poor fit]"}, {"smiles": "COc1ccc(N2CC(NC(=O)N3CCN(c4ccccc4)CC3)CC2=O)cc1", "note": "(stereo not drawn)", "Potency": "inconclusive: 0.92 µM [activator, full curve, poor fit]"}, {"smiles": "O=C(CSc1nnc(NC(=O)c2ccc(F)cc2)s1)NC1CC1", "Potency": "inconclusive: 5.17 µM [activator, partial curve]"}, {"smiles": "O=C(O)Cc1ccc(NC(=O)Nc2ccc(Br)cc2)cc1", "Potency": "inconclusive: 0.92 µM [falling, full curve, poor fit]"}, {"smiles": "Cc1nnc(NC(=O)CC23CC4CC(CC(C4)C2)C3)s1", "Potency": "inconclusive: 3.66 µM [falling, full curve, poor fit]"}, {"smiles": "COc1ccc(NS(=O)(=O)c2cccc(NC(=O)CCC(=O)c3ccc(Cl)cc3)c2)cc1", "Potency": "active: 20.6 µM"}, {"smiles": "CCCOC(=O)c1cccc(NC(=O)COc2ccc([N+](=O)[O-])cc2)c1", "Potency": "inconclusive: 25.9 µM [falling, single point]"}, {"smiles": "O=C(NCc1cccnc1)c1cc(C(=O)C2CC2)c[nH]1", "Potency": "inconclusive: 14.6 µM [falling, partial curve]"}, {"smiles": "COC(=O)c1sccc1NC(=O)/C=C\\c1ccc(Cl)cc1Cl", "Potency": "inconclusive: 3.66 µM [activator, single point]"}, {"smiles": "COc1ccc(C(=O)N(C)CCCC2CCCC2)cc1OC1CCN(C(C)C)CC1", "Potency": "inconclusive: 25.9 µM [activator, single point]"}, {"smiles": "COc1ccc(OCC(=O)Nc2c(C(=O)N(CCN(C)C)Cc3ccco3)oc3ccccc23)cc1", "activity change, negative = inhibition": "inactive: -14.3%"}, {"smiles": "OCc1ccc(-c2ccccc2)c(-c2ccccc2)c1", "Potency": "inconclusive: 4.61 µM [activator, full curve, poor fit]"}, {"smiles": "CN(C)S(=O)(=O)c1ccc(C(=O)Nc2nc(-c3cc4ccccc4o3)cs2)cc1", "Potency": "active: 6.51 µM"}, {"smiles": "S=C(NCc1ccc(Cl)cc1)Nc1ccccc1", "activity change, negative = inhibition": "inactive: 26.6%"}, {"smiles": "CC(NC(=O)C1CCCC1)c1ccc(Br)cc1", "note": "(stereo not drawn)", "Potency": "active: 25.9 µM"}, {"smiles": "COc1ccc(NC(=O)CN(C)C(=O)c2cc(-c3ccco3)nc3ccccc23)cc1", "activity change, negative = inhibition": "inactive: 0%"}, {"smiles": "O=C(/C=C/c1ccc(Cl)cc1)c1cccnc1", "activity change, negative = inhibition": "inactive: 19.9%"}, {"smiles": "O=C1CCN(Cc2ccccc2)C=C1c1ccc(Cl)cc1", "activity change, negative = inhibition": "inactive: 1.61%"}, {"smiles": "CCCc1cc(=O)oc2cc(OC(C)C(=O)NC3CC(C)(C)NC(C)(C)C3)ccc12", "note": "(stereo not drawn)", "Potency": "inconclusive: 32.6 µM [falling, single point]"}, {"smiles": "CCOc1ccc(-c2cn3nc(CC(C)C)sc3n2)cc1", "Potency": "inconclusive: 4.11 µM [activator, partial curve, poor fit]"}, {"smiles": "COc1ccccc1N(C(=O)c1cncc(Br)c1)c1nc(-c2ccc(C)cc2)cs1", "Potency": "inconclusive: 0.092 µM [activator, full curve, poor fit]"}, {"smiles": "O=C(Nc1ccc(Br)cc1)C1CCCN(C2=NS(=O)(=O)c3ccccc32)C1", "note": "(stereo not drawn)", "Potency": "inconclusive: 25.9 µM [falling, single point]"}, {"smiles": "C/C(Nc1ccccc1C(F)(F)F)=C1/CCOC1=O", "Potency": "inconclusive: 0.461 µM [falling, full curve, poor fit]"}, {"smiles": "COc1ccc(OC)c(-c2csc(N(Cc3ccco3)C(=O)c3ccco3)n2)c1", "Potency": "inconclusive: 8.2 µM [falling, partial curve, poor fit]"}, {"smiles": "Oc1cccc(/C=N/Nc2ncnc3c2ncn3Cc2ccccc2)c1", "Potency": "inconclusive: 25.9 µM [falling, single point]"}, {"smiles": "O=C(NCc1ccc(OC(F)(F)F)cc1)C1CC(c2c(Cl)cccc2Cl)=NO1", "note": "(stereo not drawn)", "Potency": "inconclusive: 1.46 µM [falling, partial curve, poor fit]"}, {"smiles": "CCOC(=O)c1c(NC(=O)CN2C(=O)NC3(CCCCC3C)C2=O)sc(C)c1C", "note": "(stereo not drawn)", "Potency": "inconclusive: 25.9 µM [falling, single point]"}, {"smiles": "Cc1ccc(-n2nc(C)c3c(C(F)(F)F)cc(-c4cccnc4)nc32)cc1C", "activity change, negative = inhibition": "inactive: 14%"}, {"smiles": "O=C(Nc1cccnc1)c1cc2c(ccc3ccccc32)o1", "Potency": "inconclusive: 2.59 µM [activator, full curve]"}, {"smiles": "Cc1ccc2nc(C(O)C(O)c3nc4ccc(C)cc4[nH]3)[nH]c2c1", "note": "(stereo not drawn)", "Potency": "inconclusive: 9.2 µM [activator, partial curve, poor fit]"}, {"smiles": "Cn1cccc1C(=O)OCC(=O)Nc1ccc2c(c1)OCCO2", "Potency": "inconclusive: 0.82 µM [activator, full curve]"}, {"smiles": "CC1CCCCN1c1ncnc(N)c1[N+](=O)[O-]", "note": "(stereo not drawn)", "activity change, negative = inhibition": "inactive: -0.685%"}, {"smiles": "C/C=C(\\C)C(=O)NCCN1C2=NC[C@H](Cc3ccccc3)N2C[C@H]1Cc1ccc(O)cc1", "activity change, negative = inhibition": "inactive: 2.18%"}, {"smiles": "COc1cc(/C=N/NC(=O)c2ccncc2)ccc1OCC(=O)Nc1ccccc1", "Potency": "inconclusive: 23.1 µM [activator, single point]"}, {"smiles": "CN(CCc1ccccc1)C(=O)c1ccc(NC(=O)Cc2cccc(NC(=O)C3CCN(S(=O)(=O)c4cccc([N+](=O)[O-])c4)CC3)c2)cc1", "activity change, negative = inhibition": "inactive: -0.684%"}]}]}
